The text below walks through data of article PMC5290147.

This assay concerns the target T1, β3 wild-type cytoplasmic tail peptide.
T1 sequence (peptide, desthiobiotinylated (position not stated); free C-terminus (-OH)): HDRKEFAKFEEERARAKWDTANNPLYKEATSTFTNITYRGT
Briefly: pull-down; desthiobiotinylated peptides immobilised on Dynabeads MyOne Streptavidin C1; 1 mg pKO-αV/β1 fibroblast lysate, overnight at 4 °C; western blot; only the target purified.

No constants are given. Whether binding was seen depends on the method and setting. In cells and extracts the contact can be indirect. Binding calls can cover weak binding; strength is not graded here.

For the substance talin, the binding entry is “binds”.
